Experimental data: paper PMC10117657
No constants are given. Whether binding was seen depends on the method and setting. In cells and extracts the contact can be indirect. Some results given as binding are weak or reduced against the parent protein; the word gives no strength. For some of these results: Where a sequence is shown, tags or fusion partners need not be part of it. One block for each molecule: values may come before it.

Amino acid sequences for entries named in this document (tags omitted). Residues count along the entry.
UniProt Q8IZJ1, residues 27-945: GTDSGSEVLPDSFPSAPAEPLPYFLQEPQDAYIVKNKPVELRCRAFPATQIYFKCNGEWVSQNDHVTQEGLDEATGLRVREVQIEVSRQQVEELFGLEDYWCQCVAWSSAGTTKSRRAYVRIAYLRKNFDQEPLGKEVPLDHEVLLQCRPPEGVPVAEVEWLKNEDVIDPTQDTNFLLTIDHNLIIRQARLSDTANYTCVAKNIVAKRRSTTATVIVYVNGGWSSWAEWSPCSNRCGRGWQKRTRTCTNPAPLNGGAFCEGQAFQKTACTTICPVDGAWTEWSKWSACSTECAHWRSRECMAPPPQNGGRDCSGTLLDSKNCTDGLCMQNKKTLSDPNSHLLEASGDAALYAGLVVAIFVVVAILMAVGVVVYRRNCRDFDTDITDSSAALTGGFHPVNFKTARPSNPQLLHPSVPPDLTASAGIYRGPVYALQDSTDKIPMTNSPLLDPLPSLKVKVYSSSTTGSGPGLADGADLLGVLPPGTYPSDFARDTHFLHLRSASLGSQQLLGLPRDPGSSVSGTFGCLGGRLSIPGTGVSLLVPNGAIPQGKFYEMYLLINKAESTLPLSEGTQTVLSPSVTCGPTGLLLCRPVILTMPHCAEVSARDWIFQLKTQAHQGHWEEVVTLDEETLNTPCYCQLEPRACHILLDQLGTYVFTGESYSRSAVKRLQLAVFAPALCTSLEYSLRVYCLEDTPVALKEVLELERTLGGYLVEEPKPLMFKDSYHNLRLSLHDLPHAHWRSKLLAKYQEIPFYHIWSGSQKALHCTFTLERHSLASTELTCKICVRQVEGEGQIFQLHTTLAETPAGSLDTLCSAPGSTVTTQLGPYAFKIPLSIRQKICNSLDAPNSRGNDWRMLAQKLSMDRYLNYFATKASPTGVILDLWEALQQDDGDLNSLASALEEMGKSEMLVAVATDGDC

Key:
[1] = molecular target: T1, Flag-tagged human FLRT2 intracellular domain (hFLRT2-ICD, aa563-aa660) (human) (UniProt O43155); assay: co-IP; Flag-tagged hFLRT2-ECD or hFLRT2-ICD with Myc-tagged hUNC5B; cell line not stated for this panel
T1 sequence: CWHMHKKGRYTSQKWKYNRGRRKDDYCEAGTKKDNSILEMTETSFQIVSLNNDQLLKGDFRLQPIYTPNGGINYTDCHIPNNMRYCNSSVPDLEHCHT

[2] = molecular target: T2, Flag-tagged human FLRT2 extracellular domain (hFLRT2-ECD, aa1-aa541) (human) (UniProt O43155); assay: as above
T2 sequence: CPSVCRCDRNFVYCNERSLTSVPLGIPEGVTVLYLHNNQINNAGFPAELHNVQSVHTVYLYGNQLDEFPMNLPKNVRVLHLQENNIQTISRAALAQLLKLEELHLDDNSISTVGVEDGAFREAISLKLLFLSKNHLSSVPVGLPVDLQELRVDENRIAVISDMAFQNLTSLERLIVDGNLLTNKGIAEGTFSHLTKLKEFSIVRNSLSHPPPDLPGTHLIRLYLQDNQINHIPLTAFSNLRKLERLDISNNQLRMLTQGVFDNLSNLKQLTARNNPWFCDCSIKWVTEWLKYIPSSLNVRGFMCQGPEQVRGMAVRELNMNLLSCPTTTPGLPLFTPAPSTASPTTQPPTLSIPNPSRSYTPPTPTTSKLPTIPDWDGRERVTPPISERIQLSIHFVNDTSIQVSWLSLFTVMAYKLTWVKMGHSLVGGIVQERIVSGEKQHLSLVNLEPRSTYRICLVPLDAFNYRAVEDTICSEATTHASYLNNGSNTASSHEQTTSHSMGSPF

[3] = molecular target: T3, Flag-tagged full-length human FLRT2 (fibronectin leucine-rich transmembrane protein 2) (human) (UniProt O43155); assay: co-IP; Myc-hUNC5B and/or Flag-hFLRT2 transfected into HEK293T cells; precipitated with anti-Flag, blotted for Myc and Flag; lysis in 25 mM HEPES pH 7.4, 150 mM NaCl, 0.5% Triton X-100; washes with 450 mM NaCl
T3 sequence: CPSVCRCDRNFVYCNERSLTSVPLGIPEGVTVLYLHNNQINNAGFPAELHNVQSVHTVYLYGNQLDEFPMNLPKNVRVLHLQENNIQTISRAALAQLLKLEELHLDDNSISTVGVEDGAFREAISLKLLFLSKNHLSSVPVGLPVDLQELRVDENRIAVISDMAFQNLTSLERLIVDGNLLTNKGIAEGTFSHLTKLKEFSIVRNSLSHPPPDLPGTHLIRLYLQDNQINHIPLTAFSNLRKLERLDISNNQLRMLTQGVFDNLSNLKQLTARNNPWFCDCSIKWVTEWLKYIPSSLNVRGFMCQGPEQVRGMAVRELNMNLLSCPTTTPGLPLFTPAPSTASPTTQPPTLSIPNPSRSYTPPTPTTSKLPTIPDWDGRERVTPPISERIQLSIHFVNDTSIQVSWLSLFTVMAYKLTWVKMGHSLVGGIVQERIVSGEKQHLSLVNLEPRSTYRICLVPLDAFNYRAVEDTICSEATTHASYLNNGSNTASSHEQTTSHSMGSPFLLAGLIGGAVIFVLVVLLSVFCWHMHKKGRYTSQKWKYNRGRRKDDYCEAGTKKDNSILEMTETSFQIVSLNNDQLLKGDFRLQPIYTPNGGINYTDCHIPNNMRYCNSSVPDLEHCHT

[4] = molecular target: endogenous UNC5B of THP-1 cells (human (endogenous in THP-1)) (UniProt Q8IZJ1); assay: co-IP; endogenous proteins; UNC5B immunoprecipitated from PMA-incubated THP-1 cells, blotted for FLRT2 and UNC5B

binding [1]: no binding
binding [2]: binds
binding [3]: binds
Molecule: Myc-tagged full-length human UNC5B (Unc-5 netrin receptor B) (from UniProt Q8IZJ1 27-945)

binding [4]: binds
B1: endogenous FLRT2 of THP-1 cells (protein, UniProt O43155 36-660)
chain: T3 sequence
